According to the supplement of paper PMC10849652:
Some of the results follow.

Protein sequences, listed by entry. Tags and fused reporters are not part of them. Lines headed by an entry give the natural chain unless they say otherwise; changes in a name come on top.
UniProt O75367, whole entry, looked up: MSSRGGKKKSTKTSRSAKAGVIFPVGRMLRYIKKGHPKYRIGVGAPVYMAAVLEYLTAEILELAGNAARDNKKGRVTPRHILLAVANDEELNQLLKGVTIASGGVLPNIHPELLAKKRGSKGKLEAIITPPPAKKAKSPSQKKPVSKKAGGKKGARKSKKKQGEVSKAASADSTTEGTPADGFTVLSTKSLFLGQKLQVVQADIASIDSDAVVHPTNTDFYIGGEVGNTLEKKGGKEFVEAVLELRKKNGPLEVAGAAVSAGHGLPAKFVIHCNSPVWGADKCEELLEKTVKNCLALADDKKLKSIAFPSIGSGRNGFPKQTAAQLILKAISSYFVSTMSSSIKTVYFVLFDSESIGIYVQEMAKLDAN
UniProt Q6Y1H2: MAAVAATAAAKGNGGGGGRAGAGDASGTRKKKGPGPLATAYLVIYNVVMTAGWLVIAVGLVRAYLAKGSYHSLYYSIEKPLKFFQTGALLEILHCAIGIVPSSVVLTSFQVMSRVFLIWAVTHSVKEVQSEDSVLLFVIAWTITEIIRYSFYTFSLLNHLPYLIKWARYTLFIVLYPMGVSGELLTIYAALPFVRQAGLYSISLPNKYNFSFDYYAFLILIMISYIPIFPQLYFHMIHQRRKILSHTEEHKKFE
UniProt A2PYH4: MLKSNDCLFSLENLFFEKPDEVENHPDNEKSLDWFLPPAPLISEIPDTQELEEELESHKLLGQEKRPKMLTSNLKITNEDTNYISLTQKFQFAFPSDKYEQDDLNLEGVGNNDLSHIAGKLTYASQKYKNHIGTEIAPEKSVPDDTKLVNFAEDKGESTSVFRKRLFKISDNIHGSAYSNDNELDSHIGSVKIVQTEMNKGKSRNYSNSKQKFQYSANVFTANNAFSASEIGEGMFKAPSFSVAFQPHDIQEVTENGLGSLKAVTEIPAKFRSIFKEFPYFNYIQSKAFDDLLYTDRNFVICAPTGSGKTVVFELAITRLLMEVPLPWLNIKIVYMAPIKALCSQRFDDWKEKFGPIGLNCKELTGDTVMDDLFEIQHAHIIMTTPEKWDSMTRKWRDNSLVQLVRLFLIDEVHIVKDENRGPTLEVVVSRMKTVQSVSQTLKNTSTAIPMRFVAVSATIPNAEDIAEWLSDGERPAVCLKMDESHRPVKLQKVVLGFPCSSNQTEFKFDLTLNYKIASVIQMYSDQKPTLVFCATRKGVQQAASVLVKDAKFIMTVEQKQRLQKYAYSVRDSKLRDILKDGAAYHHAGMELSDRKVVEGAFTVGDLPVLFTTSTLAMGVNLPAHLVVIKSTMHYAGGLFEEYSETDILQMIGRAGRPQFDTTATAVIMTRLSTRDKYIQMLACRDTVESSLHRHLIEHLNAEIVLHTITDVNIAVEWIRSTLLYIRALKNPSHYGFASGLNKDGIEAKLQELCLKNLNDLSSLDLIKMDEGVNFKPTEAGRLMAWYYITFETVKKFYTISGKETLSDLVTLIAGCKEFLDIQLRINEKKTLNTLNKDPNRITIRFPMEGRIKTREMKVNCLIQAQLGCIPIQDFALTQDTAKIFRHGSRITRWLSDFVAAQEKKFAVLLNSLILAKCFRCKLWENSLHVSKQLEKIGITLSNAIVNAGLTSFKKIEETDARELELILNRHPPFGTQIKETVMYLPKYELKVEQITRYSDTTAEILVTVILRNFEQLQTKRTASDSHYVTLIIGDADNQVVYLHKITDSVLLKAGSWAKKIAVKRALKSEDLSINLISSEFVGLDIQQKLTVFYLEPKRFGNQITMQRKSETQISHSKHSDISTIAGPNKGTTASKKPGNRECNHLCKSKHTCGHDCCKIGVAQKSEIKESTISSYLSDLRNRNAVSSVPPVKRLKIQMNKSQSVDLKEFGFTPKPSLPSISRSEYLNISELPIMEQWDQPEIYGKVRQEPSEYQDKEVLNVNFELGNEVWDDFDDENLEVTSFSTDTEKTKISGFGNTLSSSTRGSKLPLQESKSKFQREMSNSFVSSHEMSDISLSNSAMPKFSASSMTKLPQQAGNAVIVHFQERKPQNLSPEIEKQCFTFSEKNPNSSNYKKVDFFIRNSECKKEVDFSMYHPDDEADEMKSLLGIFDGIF
UniProt Q9P0R6: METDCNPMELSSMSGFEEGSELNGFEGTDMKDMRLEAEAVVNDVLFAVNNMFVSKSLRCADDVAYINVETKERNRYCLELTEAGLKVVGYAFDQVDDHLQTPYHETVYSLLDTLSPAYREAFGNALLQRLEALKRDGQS
UniProt P68871: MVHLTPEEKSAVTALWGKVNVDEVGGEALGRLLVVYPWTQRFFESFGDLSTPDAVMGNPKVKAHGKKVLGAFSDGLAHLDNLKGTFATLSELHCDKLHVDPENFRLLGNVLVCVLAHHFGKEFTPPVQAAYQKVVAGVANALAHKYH
UniProt P07305, whole entry, looked up: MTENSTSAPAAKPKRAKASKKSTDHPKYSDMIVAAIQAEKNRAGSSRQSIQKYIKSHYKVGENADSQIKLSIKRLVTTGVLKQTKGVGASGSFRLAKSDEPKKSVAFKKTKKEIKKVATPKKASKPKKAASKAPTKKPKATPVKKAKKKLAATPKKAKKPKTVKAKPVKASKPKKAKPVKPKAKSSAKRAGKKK
UniProt P08263: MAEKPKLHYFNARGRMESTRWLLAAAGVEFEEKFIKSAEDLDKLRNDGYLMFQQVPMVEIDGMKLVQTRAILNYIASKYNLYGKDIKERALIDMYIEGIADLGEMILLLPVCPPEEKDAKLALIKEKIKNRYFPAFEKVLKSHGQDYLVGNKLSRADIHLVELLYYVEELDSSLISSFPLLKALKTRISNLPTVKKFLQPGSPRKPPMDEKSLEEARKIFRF
UniProt Q8IYU2: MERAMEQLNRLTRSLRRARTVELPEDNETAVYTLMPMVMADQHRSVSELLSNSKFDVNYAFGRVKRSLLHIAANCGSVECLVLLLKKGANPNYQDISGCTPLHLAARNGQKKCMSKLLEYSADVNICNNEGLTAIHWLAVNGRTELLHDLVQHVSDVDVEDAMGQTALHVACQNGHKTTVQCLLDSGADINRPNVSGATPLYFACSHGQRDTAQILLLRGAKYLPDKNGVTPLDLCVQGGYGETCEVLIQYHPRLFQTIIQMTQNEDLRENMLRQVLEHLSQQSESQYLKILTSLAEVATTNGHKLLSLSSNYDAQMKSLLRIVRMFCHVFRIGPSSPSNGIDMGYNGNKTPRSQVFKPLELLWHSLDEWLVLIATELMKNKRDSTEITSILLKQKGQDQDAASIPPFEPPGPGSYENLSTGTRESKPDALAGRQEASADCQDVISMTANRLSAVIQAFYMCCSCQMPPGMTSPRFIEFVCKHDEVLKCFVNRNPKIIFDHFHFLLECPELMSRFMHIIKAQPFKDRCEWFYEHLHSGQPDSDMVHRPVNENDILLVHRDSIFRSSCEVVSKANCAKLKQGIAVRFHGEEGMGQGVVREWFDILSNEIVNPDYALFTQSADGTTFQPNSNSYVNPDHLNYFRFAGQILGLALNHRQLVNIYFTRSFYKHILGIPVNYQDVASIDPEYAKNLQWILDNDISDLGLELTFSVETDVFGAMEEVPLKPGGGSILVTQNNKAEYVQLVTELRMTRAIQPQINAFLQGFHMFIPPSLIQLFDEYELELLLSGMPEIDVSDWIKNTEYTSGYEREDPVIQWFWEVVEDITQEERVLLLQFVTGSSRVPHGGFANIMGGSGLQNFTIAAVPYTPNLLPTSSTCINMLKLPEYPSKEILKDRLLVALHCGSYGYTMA
UniProt P14210, whole entry, looked up: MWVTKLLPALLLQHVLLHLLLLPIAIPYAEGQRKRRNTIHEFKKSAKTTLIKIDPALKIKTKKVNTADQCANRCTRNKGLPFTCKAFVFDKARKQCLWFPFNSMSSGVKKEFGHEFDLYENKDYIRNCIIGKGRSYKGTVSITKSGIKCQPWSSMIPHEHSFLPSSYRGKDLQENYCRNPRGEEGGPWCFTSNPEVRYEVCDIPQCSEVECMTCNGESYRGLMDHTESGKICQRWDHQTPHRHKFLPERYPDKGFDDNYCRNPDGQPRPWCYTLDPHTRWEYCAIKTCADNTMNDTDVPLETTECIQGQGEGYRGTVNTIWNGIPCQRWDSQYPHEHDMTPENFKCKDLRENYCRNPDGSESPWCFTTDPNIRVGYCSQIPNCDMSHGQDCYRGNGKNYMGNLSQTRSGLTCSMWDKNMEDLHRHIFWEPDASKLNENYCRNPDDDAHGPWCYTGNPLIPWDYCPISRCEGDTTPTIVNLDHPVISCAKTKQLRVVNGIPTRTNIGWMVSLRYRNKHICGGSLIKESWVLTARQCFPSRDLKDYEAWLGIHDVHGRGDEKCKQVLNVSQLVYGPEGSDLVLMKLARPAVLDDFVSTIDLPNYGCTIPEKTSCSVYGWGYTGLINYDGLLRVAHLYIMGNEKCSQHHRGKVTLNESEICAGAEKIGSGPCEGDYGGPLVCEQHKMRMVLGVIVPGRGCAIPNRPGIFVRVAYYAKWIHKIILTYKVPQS
UniProt Q9BY41: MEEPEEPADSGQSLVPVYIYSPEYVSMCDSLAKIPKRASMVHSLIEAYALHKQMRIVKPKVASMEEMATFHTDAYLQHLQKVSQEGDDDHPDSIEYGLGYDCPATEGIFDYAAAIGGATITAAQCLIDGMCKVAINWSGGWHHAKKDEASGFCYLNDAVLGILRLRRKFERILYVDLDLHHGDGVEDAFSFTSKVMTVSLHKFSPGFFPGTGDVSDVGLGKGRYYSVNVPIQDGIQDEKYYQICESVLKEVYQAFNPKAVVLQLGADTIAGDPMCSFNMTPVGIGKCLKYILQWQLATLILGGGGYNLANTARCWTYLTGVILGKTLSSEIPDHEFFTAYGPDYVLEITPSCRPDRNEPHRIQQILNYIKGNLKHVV
UniProt Q93099: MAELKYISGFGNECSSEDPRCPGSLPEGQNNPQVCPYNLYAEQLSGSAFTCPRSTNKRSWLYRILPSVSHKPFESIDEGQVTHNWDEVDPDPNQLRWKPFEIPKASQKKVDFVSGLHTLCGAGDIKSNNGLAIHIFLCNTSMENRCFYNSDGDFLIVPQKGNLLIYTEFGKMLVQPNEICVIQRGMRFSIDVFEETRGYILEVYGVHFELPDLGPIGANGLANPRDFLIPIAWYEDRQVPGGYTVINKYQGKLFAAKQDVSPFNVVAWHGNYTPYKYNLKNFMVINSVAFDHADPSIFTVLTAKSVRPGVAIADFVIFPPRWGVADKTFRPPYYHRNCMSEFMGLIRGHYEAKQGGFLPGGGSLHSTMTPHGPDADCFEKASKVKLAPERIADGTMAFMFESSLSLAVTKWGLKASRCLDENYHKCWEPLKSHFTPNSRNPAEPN
UniProt Q68CZ6: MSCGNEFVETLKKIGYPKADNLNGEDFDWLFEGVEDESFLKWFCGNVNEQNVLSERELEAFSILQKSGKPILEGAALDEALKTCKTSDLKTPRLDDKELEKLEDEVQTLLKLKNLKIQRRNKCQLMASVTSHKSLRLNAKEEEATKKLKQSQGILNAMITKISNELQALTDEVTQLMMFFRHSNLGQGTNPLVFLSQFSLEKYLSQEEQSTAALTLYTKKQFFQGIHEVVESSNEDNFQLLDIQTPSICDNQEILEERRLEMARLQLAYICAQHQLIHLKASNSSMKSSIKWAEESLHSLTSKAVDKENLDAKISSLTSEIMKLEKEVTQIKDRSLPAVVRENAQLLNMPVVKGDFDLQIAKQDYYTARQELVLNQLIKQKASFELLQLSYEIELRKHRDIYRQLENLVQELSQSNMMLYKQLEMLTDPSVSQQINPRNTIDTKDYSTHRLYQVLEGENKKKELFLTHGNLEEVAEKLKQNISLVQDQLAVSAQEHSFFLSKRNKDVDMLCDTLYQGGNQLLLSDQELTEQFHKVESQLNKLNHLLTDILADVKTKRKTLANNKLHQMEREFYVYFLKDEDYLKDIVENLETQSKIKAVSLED
UniProt P42357: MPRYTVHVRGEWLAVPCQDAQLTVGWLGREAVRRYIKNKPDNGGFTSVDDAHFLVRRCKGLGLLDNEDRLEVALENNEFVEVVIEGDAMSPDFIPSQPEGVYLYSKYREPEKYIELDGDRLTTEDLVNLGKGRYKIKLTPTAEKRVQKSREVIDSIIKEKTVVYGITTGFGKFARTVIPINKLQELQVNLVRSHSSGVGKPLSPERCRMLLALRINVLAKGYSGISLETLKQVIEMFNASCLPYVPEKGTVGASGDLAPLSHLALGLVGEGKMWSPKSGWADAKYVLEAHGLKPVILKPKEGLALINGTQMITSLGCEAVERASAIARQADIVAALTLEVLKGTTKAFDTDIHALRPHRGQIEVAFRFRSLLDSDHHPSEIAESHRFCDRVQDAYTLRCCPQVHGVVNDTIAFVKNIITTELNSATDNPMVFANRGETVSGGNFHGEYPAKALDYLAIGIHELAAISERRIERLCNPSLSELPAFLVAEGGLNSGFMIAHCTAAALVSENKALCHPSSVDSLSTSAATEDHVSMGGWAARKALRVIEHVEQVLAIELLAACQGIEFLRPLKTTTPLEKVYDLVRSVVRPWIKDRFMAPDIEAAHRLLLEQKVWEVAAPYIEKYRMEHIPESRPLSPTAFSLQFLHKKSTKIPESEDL

Assays:
Experiment in all cases: log2 fold change, soluble protein after heating vs DMSO (PISA); higher = thermal stabilisation; K562 cells, 10 uM, 30 min; active = over 0.2 and 3.5 SD of the protein, either way, in both replicates (recomputed)
[1] = compound: CC1=C(C=C(C=C1)NC(=O)C2=CC(=CC=C2)N(C)C)NC(=O)C3=CC=C(C=C3)O
Outline: (§1)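 For each measurement, 10 μM compound was applied for 30 min to K562 cells at 2×10^6 cells/mL. Aliquots were heated for 3 min across 48°C-58°C, pooled, and extracted in PBS with 0.5% NP-40 at 4°C; the supernatant after 21,000xg for 90 min was soluble protein. This was quantified by TMTpro 16plex LC-MS/MS with channel sums equalised, and thermal stability was reported relative to control samples from duplicates, on a log2 fold-change scale.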

[2] = compound: CC1=CC=C(C=C1)SC2=C3C=C(SC3=CN=C2)C(=O)N
Outline: as §1

[3] = compound: CC1=NC(=CC=C1)C2=C(N=C(N2)C(C)(C)C)C3=CC4=NC=CN=C4C=C3
Outline: as §1

[4] = compound: CCCCN(Cc1ccc(C(=O)NO)cc1)C(=O)Nc1ccccc1 [Nexturastat A]
Outline: as §1

[5] = compound: CCCS(=O)(=O)Nc1ccc(F)c(C(=O)c2c[nH]c3ncc(Cl)cc23)c1F
Outline: as §1

[6] = compound: CCCc1cc(C)[nH]c(=O)c1CNC(=O)c1cc(-c2ccnc(N3CCN(C)CC3)c2)cc2c1cnn2C(C)C
Outline: as §1

[7] = compound: CCN(CC)Cc1ccc2cc(COC(=O)Nc3ccc(C(=O)NO)cc3)ccc2c1 [givinostat]
Outline: as §1

[8] = compound: CCN(CCCOc1ccc2c(Nc3cc(CC(=O)Nc4cccc(F)c4)[nH]n3)ncnc2c1)CCOP(=O)(O)O [barasertib]
Outline: as §1

[9] = compound: CC[C@@H]1C(=O)N(C)c2cnc(Nc3ccc(C(=O)NC4CCN(C)CC4)cc3OC)nc2N1C1CCCC1
Outline: as §1

[10] = compound: CC[C@@H]1C(=O)N(C)c2cnc(Nc3ccc(C(=O)N[C@H]4CC[C@H](N5CCN(CC6CC6)CC5)CC4)cc3OC)nc2N1C(C)C [volasertib]
Outline: as §1

[11] = compound: CC[C@H](C)N1C=C(C2=C(C=C(C=C21)C3=CN=C(C=C3)N4CCNCC4)C(=O)NCC5=C(C=C(NC5=O)C)C)C
Outline: as §1

[12] = compound: CC[C@H](C)[C@@H](C(=O)N[C@@H]([C@@H](C)O)C(=O)N[C@@H](CC(C)C)C(=O)[C@]1(CO1)C)NC(=O)[C@H]([C@@H](C)CC)N(C)C(=O)C [epoxomicin]
Outline: as §1

[13] = compound: CCn1c(C(=O)N(C2CC2)C2CC2)cc2c3c(ncn3C)c(Nc3cc(C)n(C)n3)nc21
Outline: as §1

[14] = compound: CCn1cc(-c2ccnc3[nH]c(-c4cccc(CN(C)C)c4)cc23)c(-c2ccc(NC(=O)N(C)C)cc2)n1
Outline: as §1

[15] = compound: CN(CCOC1=CC=C(C=C1)C[C@H]2C(=O)NC(=O)S2)C3=CC=CC=N3 (racemic) [rosiglitazone]
Outline: as §1

[16] = compound: CN1CCC(CNc2ccc3ncc(-c4cccc(OC(F)(F)F)c4)n3n2)CC1
Outline: as §1

[17] = compound: CC1=C(C=C(C=C1)NC(=O)C2=CC(=CC=C2)C(C)(C)C#N)NC3=CC4=C(C=C3)N=CN(C4=O)C
Outline: as §1

[18] = compound: CCCS(=O)(=O)Nc1ccc(F)c(C(=O)c2c[nH]c3ncc(-c4ccc(Cl)cc4)cc23)c1F [vemurafenib]
Outline: as §1

[19] = compound: CN(C)CC(=O)Nc1ccc2[nH]c(=O)c3ccccc3c2c1
Outline: as §1

[20] = compound: CN1C2=C(C3=C1C(=O)N(N=C3)CC4=CC(=CC=C4)N)SC(=C2)S(=O)C
Outline: as §1

Measured: log2 fold change

H2AFY (UniProt O75367)
inactive: [1] 0.064 | [2] -0.188 | [3] -0.099 | [4] 0.721 | [5] 0.393 | [6] 0.61 | [7] 0.347 | [8] -0.099 | [9] -0.063 | [10] -0.075 | [11] -0.224 | [12] -0.209 | [13] -0.127 | [14] 0.043 | [15] 0.102 | [16] 0.094

HACD2 (UniProt Q6Y1H2)
inactive: [2] -0.023 | [5] 0.059 | [6] 0.062 | [7] -0.083 | [10] -0.154 | [13] -0.011

HBD (UniProt E9PEW8)
inactive: [6] -0.063 | [7] 0.053 | [11] 0.121 | [13] -0.083 | [14] -0.151 | [16] 0.132

HEXD isoform 2 (UniProt Q8WVB3)
inactive: [17] -0.487 | [2] 0.075 | [4] 0.084 | [18] -0.112 | [5] -0.1 | [7] 0.003 | [10] -0.008 | [12] 0.057 | [13] -0.032 | [14] 0.043 | [19] -0.394 | [20] -0.118 | [16] 0.063

H3-3A (UniProt P84243)
inactive: [17] -0.205 | [2] 0.078 | [18] 0.149 | [5] 0.102 | [6] 0.118 | [7] 0.267 | [8] 0.101 | [9] -0.083 | [10] -0.239 | [11] 0.147 | [19] -0.083 | [20] 0.045

HFM1 (UniProt A2PYH4)
inactive: [2] 0.015 | [5] 0.31 | [8] -0.27 | [10] -1.53 | [15] 0.222 | [20] -0.044

Random excerpt: 2 entries already listed.
HACD2 (UniProt Q6Y1H2)
inactive: [2] -0.023 | [5] 0.059 | [6] 0.062 | [7] -0.083 | [10] -0.154 | [13] -0.011

HBD (UniProt E9PEW8)
inactive: [6] -0.063 | [7] 0.053 | [11] 0.121 | [13] -0.083 | [14] -0.151 | [16] 0.132

More records follow.

GSKIP (UniProt Q9P0R6)
inactive: [1] -0.111 | [2] 0.102 | [3] -0.072 | [18] -0.103 | [5] -0.077 | [6] -0.027 | [7] -0.035 | [8] 0.041 | [9] 0.112 | [10] -0.023 | [11] -0.1 | [13] 0.005 | [14] -0.078 | [19] -0.06 | [15] -0.048 | [20] -0.076 | [16] 0.162

HBB (UniProt P68871)
inactive: [6] -0.082 | [9] 0.048

H1-0 (UniProt P07305)
inactive: [9] 0.175 | [20] 0.029

H3C1 (UniProt P68431)
inactive: [1] -0.1

HELLS (UniProt Q9NRZ9)
inactive: [4] 0.199 | [8] -0.003 | [12] -0.164 | [14] -0.191 | [15] 0.026 | [16] -0.012

GSTA1 (UniProt P08263)
inactive: [17] -0.123 | [4] 0.01 | [18] 0.111 | [8] 0.103 | [11] -0.237 | [12] -0.109 | [19] -0.077 | [15] 0.285

HABP4 (UniProt Q5JVS0)
inactive: [1] 0.089 | [4] 0.314 | [7] -0.013 | [8] -0.028 | [12] 0.05 | [13] -0.021 | [15] 0.186

HACE1 (UniProt Q8IYU2)
inactive: [7] 0.086 | [13] -0.037

HDAC10 (UniProt Q969S8)
inactive: [1] 0.027 | [2] -0.001 | [18] 0.231 | [5] 0.046 | [6] 0.056 | [7] 0.153 | [8] -0.117 | [9] -0.113 | [10] -0.041 | [11] 0.028 | [14] -0.179 | [19] 0.224 | [20] -0.107 | [16] 0.055

HGF (UniProt P14210)
inactive: [17] -0.069 | [4] -0.044 | [6] -0.424 | [8] 0.049 | [9] 0.03 | [11] -0.081 | [12] -0.152 | [15] 0.002 | [20] 0.195

HDAC8 (UniProt Q9BY41)
inactive: [4] 0.993 | [12] -0.008

HGD (UniProt Q93099)
inactive: [17] -0.081 | [4] 0.05 | [12] -0.227

HBZ, A0A494C057
inactive: [6] 0.051 | [7] 0.109 | [8] 0.013 | [9] 0.203 | [11] -0.079

HAUS3 (UniProt Q68CZ6)
inactive: [1] -0.012 | [2] 0.049 | [3] -0.121 | [4] 0.345 | [18] -0.005 | [5] 0.039 | [6] 0.171 | [7] 0.224 | [9] -0.013 | [10] -0.14 | [12] -0.183 | [13] -0.015 | [19] -0.094 | [20] 0.229

HAL (UniProt P42357)
inactive: [17] -0.109 | [2] 0.01 | [4] 0.218 | [18] 1.01 | [5] 0.022 | [6] 0.361 | [9] 0.28 | [10] -0.049 | [11] 0.025 | [12] 0.417 | [19] 1.06 | [20] 0.635
